Values from PubChem BioAssay AID602196 (INSERM, 2012)

- Test: 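Knock-downs that protect lung cancer cells from cisplatin or sensitise them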
- System: human A549 lung cancer cells
- Knock-down reagent: siRNA pair against human genes
- Time to read-out: 48 h transfection before cisplatin; time from cisplatin to read-out not stated
- Conditions: cisplatin at a dose killing half of control-siRNA cells; exact dose and duration not given
- Detection: 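Cisplatin cell death as a shift from the 50% death seen with control siRNA; siRNAs toxic or growth-blocking alone scored 0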
- Scale: two-siRNA summed score (-2 to +2): higher = both siRNAs protect from cisplatin killing; -2 means both sensitise; mean protection from cisplatin (shift in death) and protection from cisplatin (shift in death), siRNA C: higher = protection from cisplatin killing
- Call rule: 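siRNAs harmful alone (LDH or WST-1) get 0; others get +1 for less and -1 for more cisplatin killing; genes are active when the two siRNAs give the same sign, summing to ±2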
- Calls: active = both siRNAs shift cisplatin killing the same way; inactive = no consistent shift, or siRNA harmful alone
This is a random part of about 23,000 reagents tested. Of all reagents, 455 (2%) are marked active. 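Active includes both protection and sensitisation; some change values fall well beyond the stated -50 to +50 range.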 Reagents against one gene are numbered here. Further read-outs or replicates are left out here. Not given: the amount of reagent.

| target | reagent no. | two-siRNA summed score (-2 to +2) | mean protection from cisplatin (shift in death) (%) | protection from cisplatin (shift in death), siRNA C (%) | Call |
| --- | --- | --- | --- | --- | --- |
| CLDN18 | 1 | 1 | 9.2 | 17 | inactive |
| LOC440460 | 1 | 1 | 14.2 | 8.1 | inactive |
| EDARADD | 1 | 1 | 18.2 | 40.1 | inactive |
| GOPC | 1 | 0 | 4.2 | -2 | inactive |
| GOPC | 2 | 0 | 9.6 | -2.7 | inactive |
| LOC440224 | 1 | 2 | 17.8 | 13.8 | active |
| LRRC8C | 1 | 0 | 7.3 | 11.6 | inactive |
| LOC441243 | 1 | 0 | 2.7 | 0.3 | inactive |
| PTPN14 | 1 | 1 | 4.7 | 15.4 | inactive |
| UBE2D4 | 1 | 0 | 15.2 | 26 | inactive |
| IKZF5 | 1 | 0 | 7.5 | 9.8 | inactive |
| LOC388972 | 1 | 1 | 15.5 | 12.4 | inactive |
| CUX2 | 1 | 0 | -3.9 | -4.3 | inactive |
| SOCS3 | 1 | 0 | 25.4 | 27.2 | inactive |
| IMPA1 | 1 | 0 | 2.8 | -2.6 | inactive |
| PNN | 1 | 1 | 0.1 | -24.6 | inactive |
| LINC02483 | 1 | 0 | 4.4 | 1.7 | inactive |
| ZCCHC14 | 1 | 1 | 9.3 | 5.7 | inactive |
| AS3MT | 1 | 0 | -9.8 | -10.8 | inactive |
| FLVCR2 | 1 | 0 | 1.2 | 1.3 | inactive |
| LOC441462 | 1 | 0 | 3.4 | 5 | inactive |
| FOXN3 | 1 | 1 | 17.1 | 17.1 | inactive |
| LOC387832 | 1 | 0 | 6 | 8.4 | inactive |
| AP4M1 | 1 | 0 | -0.3 | -1.9 | inactive |
| KDM5A | 1 | -1 | -12.1 | -22.3 | inactive |
| CIMAP1D | 1 | 0 | 6.9 | -0.7 | inactive |
| NCF2 | 1 | -1 | -14.1 | 1 | inactive |
| CHN1 | 1 | 0 | -1.3 | 8.5 | inactive |
| PAK1IP1 | 1 | 0 | 0 | -2.7 | inactive |

Sorted by “two-siRNA summed score (-2 to +2)” (descending): some entries from above.
| target | reagent no. | two-siRNA summed score (-2 to +2) | mean protection from cisplatin (shift in death) (%) | protection from cisplatin (shift in death), siRNA C (%) | Call |
| --- | --- | --- | --- | --- | --- |
| CLDN18 | 1 | 1 | 9.2 | 17 | inactive |
| LOC440460 | 1 | 1 | 14.2 | 8.1 | inactive |
| EDARADD | 1 | 1 | 18.2 | 40.1 | inactive |
| GOPC | 1 | 0 | 4.2 | -2 | inactive |

The list goes on.
| target | reagent no. | two-siRNA summed score (-2 to +2) | mean protection from cisplatin (shift in death) (%) | protection from cisplatin (shift in death), siRNA C (%) | Call |
| --- | --- | --- | --- | --- | --- |
| OR8G5 | 1 | -1 | -5.4 | -16.5 | inactive |
| LOC399959 | 1 | 0 | 5.9 | 5.6 | inactive |
| LOC163404 | 1 | 0 | 4.2 | 8.1 | inactive |
| IFITM3P9 | 1 | 0 | 6.5 | 6.4 | inactive |
| MEX3C | 1 | 0 | 3.5 | -3.4 | inactive |
| ACTRT3 | 1 | 0 | 3.7 | 6.8 | inactive |
| MYD88 | 1 | 0 | -7 | -12.7 | inactive |
| KLF13 | 1 | -1 | -23.3 | -32.1 | inactive |
| CKMT1B | 1 | 0 | 3.8 | 12.2 | inactive |
| MYH8 | 1 | 0 | 2.9 | -8 | inactive |
| LPAR1 | 1 | -1 | -4.3 | 8.9 | inactive |
| RIMS2 | 1 | 0 | 2.9 | -1.9 | inactive |
| RUFY2 | 1 | 0 | -8.9 | -17.1 | inactive |
| CXCR5 | 1 | 0 | 5.8 | 12.5 | inactive |
| WFIKKN1 | 1 | 0 | 0.4 | -14.3 | inactive |
| CCDC68 | 1 | 0 | -0.5 | -4.5 | inactive |
| KCNJ15 | 1 | 1 | 11.4 | 13.3 | inactive |
| ADRA2A | 1 | 0 | -5.9 | -2.9 | inactive |
| CCN2 | 1 | -1 | 2.7 | 12.8 | inactive |
| PI4KA | 1 | 1 | 13.9 | 13.3 | inactive |
| PPP1R1C | 1 | 1 | 13.6 | 9.3 | inactive |
| ENOX1 | 1 | 0 | 11.6 | 11.4 | inactive |
| LOC400681 | 1 | 0 | 0.8 | 0.9 | inactive |
| UBIAD1 | 1 | 0 | 8.6 | 7 | inactive |
| COX6B1 | 1 | 2 | 23.9 | 24.9 | active |
| RMP24 | 1 | 0 | 0.1 | 2.2 | inactive |
| BAG5 | 1 | 0 | 13.5 | 18.1 | inactive |
| LOC401740 | 1 | 0 | 0.4 | 0.2 | inactive |
